Measured values reported in PubChem BioAssay AID192 (DTP/NCI, 2004).
The list shows only some results of the screen, not a fair sample: it is rich in T/C values a quarter to a half above the control, in often repeated tests (any T/C) and in doses without a T/C. Further doses and runs are listed elsewhere. T/C gives the treated animals as a percentage of the vehicle group. Some entries give survivors of the animals treated and no T/C: the source holds a T/C of zero for them, seemingly a mark for toxic or unscored doses. Some survivor counts are full or nearly so, which does not show that the dose was tolerated: survival well below the control is almost never listed, so the zero probably covers shortened survival too. Survivors were counted at the toxicity check, usually on the fifth day, unless a day is given; later deaths do not show. Schedules are NCI's codes, read here as Q, the interval in days (D) or hours (H), X, the number of doses. Some entries were tested several times; the results are listed from low to high. Some structures stand for samples that the source files as different forms (salt, stereo form or complex); doses refer to the form tested. Where survival is the endpoint, the PubChem record calls one and a half times the control and up active, and a quarter to a half above the control has no call in these data; cut-offs in other NCI protocols can differ. Some T/C values are followed by the survivors on the day toxicity was checked, most often the fifth; without a count, all were alive then.

Tested on: BDF1 mice, B16 melanoma ip, median survival T/C
Test: NCI In Vivo Anticancer Drug Screen. Data for tumor model B16 Melanoma (intraperitoneal) in B6D2F1 (BDF1) mice
Settings: T/C endpoint: median survival time, higher T/C = longer survival
Method in brief: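 Antitumor activity is assessed in mice bearing a transplanted tumor, with survival or tumor size compared against vehicle-dosed controls and expressed as T/C.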

[1] = dose: 50.0 mg/kg/injection, schedule: Q01DX009 (ip), vehicle: saline
[2] = dose: 400.0 mg/kg/injection, schedule: Q01DX001 (ip), vehicle: water
[3] = dose: 1.0 mg/kg/injection, schedule: Q01DX009 (ip), vehicle: Klucel (hydroxypropylcellulose) (HPC)
[4] = dose: 25.0 mg/kg/injection, schedule: Q01DX009 (ip), vehicle: saline
[5] = dose: 12.5 mg/kg/injection, schedule: Q01DX009 (ip), vehicle: saline with Tween-80
[6] = dose: 25.0 mg/kg/injection, schedule: Q01DX009 (ip), vehicle: saline with Tween-80

For `CCC1=C[C@H]2CN(CCc3c([nH]c4ccccc34)[C@@](C(=O)OC)(c3cc4c(cc3OC)N(C)[C@H]3[C@@](O)(C(=O)NC)[C@H](OC(C)=O)[C@]5(CC)C=CCN6CC[C@]43[C@@H]65)C2)C1`, the T/C (dose: 0.03 mg/kg/injection, schedule: Q01DX009 (ip), vehicle: water) was 132 % of control, the T/C (dose: 0.06 mg/kg/injection, schedule: Q01DX009 (ip), vehicle: water) was 137 % of control and the T/C (dose: 0.25 mg/kg/injection, schedule: Q04DX003 (ip), vehicle: water) was 138 % of control. For the same compound, the T/C (dose: 0.4 mg/kg/injection, schedule: Q01DX009 (ip), vehicle: Klucel (hydroxypropylcellulose) (HPC)) was 129 % of control, the survivor count (dose: 0.5 mg/kg/injection, schedule: Q01DX009 (ip), vehicle: water) was 10 of 10 and the T/C (dose: 0.8 mg/kg/injection, schedule: Q01DX009 (ip), vehicle: Klucel (hydroxypropylcellulose) (HPC)) was 143 % of control [5 of 6 alive]. The survivor count (dose: 1.0 mg/kg/injection, schedule: Q01DX009 (ip), vehicle: water) was 7 of 10 and 9 of 10, the T/C (dose: 1.0 mg/kg/injection, schedule: Q04DX003 (ip), vehicle: water) was 137 % of control [9 of 10 alive] and the survivor count (dose: 2.0 mg/kg/injection, schedule: Q04DX003 (ip), vehicle: water) was 10 of 10. For the same compound, the survivor count (dose: 3.2 mg/kg/injection, schedule: Q01DX009 (ip), vehicle: Klucel (hydroxypropylcellulose) (HPC)) was 6 of 6, the survivor count (dose: 6.4 mg/kg/injection, schedule: Q01DX009 (ip), vehicle: Klucel (hydroxypropylcellulose) (HPC)) was 4 of 6 and the survivor count (dose: 12.8 mg/kg/injection, schedule: Q01DX009 (ip), vehicle: Klucel (hydroxypropylcellulose) (HPC)) was 2 of 6.
`COc1cccc(/C=C/[N+](=O)[O-])c1` was tested, and the survivor count (dose: 30.0 mg/kg/injection, schedule: Q01DX009 (ip), vehicle: saline with Tween-80) was 8 of 10, the survivor count (dose: 45.0 mg/kg/injection, schedule: Q01DX009 (ip), vehicle: saline with Tween-80) was 7 of 10 and the survivor count (dose: 60.0 mg/kg/injection, schedule: Q01DX009 (ip), vehicle: saline with Tween-80) was 6 of 10.
`O=c1[nH]cnc2ccc(Cl)cc12` was tested, and the survivor count (dose: 150.0 mg/kg/injection, schedule: Q01DX009 (ip), vehicle: saline with Tween-80) was 3 of 6.
For `O=c1cc2oc3c(O)c(O)ccc3c3c4ccccc4c(=O)c(c1)c23`, the survivor count [1] was 10 of 10.
`C=CCNc1ccc(C)cc1` was tested, and the survivor count (dose: 200.0 mg/kg/injection, schedule: Q01DX009 (ip), vehicle: Klucel (hydroxypropylcellulose) (HPC)) was 4 of 10.
In the case of `CCCCNC(C)C1(O)Cc2c(O)c3c(c(O)c2C(OC2CC(N)C(O)C(C)O2)C1)C(=O)c1c(OC)cccc1C3=O` (configuration not stated), the T/C (dose: 25.0 mg/kg/injection, schedule: Q01DX001 (ip), vehicle: water) is reported as 147 % of control, the T/C [2] is reported as 133 % of control and the survivor count [2] is reported as 6 of 10.
`CNCC(C)(C)c1ccccc1` was tested, and the survivor count (dose: 100.0 mg/kg/injection, schedule: Q01DX009 (ip), vehicle: saline) was 7 of 10.
In the case of `CC[C@@H]1O[C@@H]([C@@H]2CC[C@](O)([C@]3(C)CC[C@@H]([C@@H](C)[C@@]4(O)CC[C@H](C)[C@@H](C[C@@]5(O)O[C@@H]([C@@H](C)[C@H](O)C[C@H]6CC[C@H](C)[C@@H]([C@@H](C)C(=O)O)O6)CC[C@@H]5C)O4)O3)O2)CC[C@@]1(C)O`, the survivor count (dose: 1.0 mg/kg/injection, schedule: Q01DX009 (ip), vehicle: saline) is reported as 6 of 10.
In the case of `CCC(CC)(C[NH-])C[NH-].[Cl][Pt+2][Cl]`, the T/C (dose: 0.6 mg/kg/injection, schedule: Q01DX009 (ip), vehicle: carboxymethylcellulose (CMC)) is reported as 149 % of control and the survivor count (dose: 3.6 mg/kg/injection, schedule: Q01DX009 (ip), vehicle: carboxymethylcellulose (CMC)) is reported as 9 of 10 on day 10.
For `CC1(C)OC(=O)N(CO)C1=O`, the survivor count (dose: 400.0 mg/kg/injection, schedule: Q01DX009 (ip), vehicle: saline) was 8 of 10.
`CCC(=O)NC1=C(N2CC2C)C(=O)C(NC(=O)CC)=C(N2CC2C)C1=O` (configuration not stated) was tested, and the survivor count (dose: 0.19 mg/kg/injection, schedule: Q01DX009 (ip), vehicle: Klucel (hydroxypropylcellulose) (HPC)) was 10 of 10, the survivor count (dose: 12.5 mg/kg/injection, schedule: Q01DX009 (ip), vehicle: Klucel (hydroxypropylcellulose) (HPC)) was 9 of 10 and the survivor count (dose: 25.0 mg/kg/injection, schedule: Q01DX009 (ip), vehicle: Klucel (hydroxypropylcellulose) (HPC)) was 3 of 10. The survivor count (dose: 50.0 mg/kg/injection, schedule: Q01DX009 (ip), vehicle: Klucel (hydroxypropylcellulose) (HPC)) was 10 of 10.
In the case of `N/N=C(\N)c1nn(C2OC(CO)C(O)C2O)c2ncnc(N)c12` (configuration not stated), the survivor count (dose: 320.0 mg/kg/injection, schedule: Q01DX005 (ip), vehicle: saline) is reported as 0 of 4.
With `NC1(C(=O)O)CSSC1` the survivor count (dose: 100.0 mg/kg/injection, schedule: Q01DX009 (ip), vehicle: Klucel (hydroxypropylcellulose) (HPC)) was 6 of 10.
`CCC(C(C)N1CC(=O)NC(=O)C1)N1CC(=O)NC(=O)C1` (configuration not stated) was tested, and the T/C (dose: 0.5 mg/kg/injection, schedule: Q01DX009 (ip), vehicle: Klucel (hydroxypropylcellulose) (HPC)) was 132 % of control, the T/C [3] was 140 % of control and the survivor count [3] was 10 of 10. The survivor count (dose: 2.0 mg/kg/injection, schedule: Q01DX009 (ip), vehicle: Klucel (hydroxypropylcellulose) (HPC)) was 10 of 10, the survivor count (dose: 4.0 mg/kg/injection, schedule: Q01DX009 (ip), vehicle: Klucel (hydroxypropylcellulose) (HPC)) was 10 of 10 and the T/C (dose: 4.0 mg/kg/injection, schedule: Q04DX003 (ip), vehicle: Klucel (hydroxypropylcellulose) (HPC)) was 127 and 133 % of control. For the same compound, the survivor count (dose: 8.0 mg/kg/injection, schedule: Q01DX009 (ip), vehicle: Klucel (hydroxypropylcellulose) (HPC)) was 10 of 10, the survivor count (dose: 8.0 mg/kg/injection, schedule: Q04DX003 (ip), vehicle: Klucel (hydroxypropylcellulose) (HPC)) was 10 of 10 and the survivor count (dose: 16.0 mg/kg/injection, schedule: Q04DX003 (ip), vehicle: Klucel (hydroxypropylcellulose) (HPC)) was 5 of 10 and 10 of 10. The survivor count (dose: 32.0 mg/kg/injection, schedule: Q04DX003 (ip), vehicle: Klucel (hydroxypropylcellulose) (HPC)) was 6 of 10.
With `FC1(F)SC2C3CC(C4CCC=C43)C2C1(F)F` (configuration not stated) the survivor count (dose: 1.56 mg/kg/injection, schedule: Q01DX009 (ip), vehicle: Klucel (hydroxypropylcellulose) (HPC)) was 1 of 10.
In the case of `O=c1[nH]c(=O)n(C2OC(CO)C(O)C2O)cc1F` (configuration not stated), the survivor count (dose: 6.25 mg/kg/injection, schedule: Q01DX009 (ip), vehicle: saline) is reported as 10 of 10, the survivor count (dose: 12.5 mg/kg/injection, schedule: Q01DX009 (ip), vehicle: saline) is reported as 10 of 10 and the survivor count [4] is reported as 10 of 10.
In the case of `O=C(O[Si](Cc1ccccc1)(Cc1ccccc1)Cc1ccccc1)N(CCCl)CCCl`, the survivor count (dose: 100.0 mg/kg/injection, schedule: Q01DX009 (ip), vehicle: saline with Tween-80) is reported as 10 of 10 and the survivor count (dose: 200.0 mg/kg/injection, schedule: Q01DX009 (ip), vehicle: saline with Tween-80) is reported as 10 of 10.
In the case of `COC(=O)c1[nH]c(=O)[nH]c(=O)c1F`, the survivor count (dose: 16.0 mg/kg/injection, schedule: Q01DX009 (ip), vehicle: saline with Tween-80) is reported as 10 of 10.
For `Clc1ccc(/C=C2\c3cc(Cl)ccc3-c3c(Cl)cc(Cl)cc32)cc1`, the survivor count [5] was 6 of 6, the survivor count [6] was 6 of 6 and the survivor count (dose: 50.0 mg/kg/injection, schedule: Q01DX009 (ip), vehicle: saline with Tween-80) was 6 of 6.
`C[N+](C)(C)C` was tested, and the T/C (dose: 0.75 mg/kg/injection, schedule: Q01DX009 (ip), vehicle: saline) was 127 % of control, the survivor count (dose: 1.5 mg/kg/injection, schedule: Q01DX009 (ip), vehicle: saline) was 0 of 10 and the survivor count (dose: 6.0 mg/kg/injection, schedule: Q01DX009 (ip), vehicle: saline) was 0 of 10. For the same compound, the survivor count (dose: 12.0 mg/kg/injection, schedule: Q01DX009 (ip), vehicle: saline) was 0 of 10, the survivor count [4] was 0 of 10 and the survivor count [1] was 0 of 10.
With `CCCCCCCCCCCCCCCCOc1ccc(C(=O)CC(=O)OC)cc1` the survivor count (dose: 400.0 mg/kg/injection, schedule: Q01DX009 (ip), vehicle: Klucel (hydroxypropylcellulose) (HPC)) was 10 of 10.
In the case of `C[n+]1c2ccccc2cc2ccccc21`, the survivor count (dose: 3.13 mg/kg/injection, schedule: Q01DX009 (ip), vehicle: saline with Tween-80) is reported as 6 of 6, the survivor count [5] is reported as 6 of 6 and the survivor count [6] is reported as 6 of 6.
